Results from paper PMC8366450.
These are yes or no findings as the source states them, for the method shown. Some entries that bind do so weakly or less than the wild type.

Chains of the proteins cited; added tags and fusions are not shown.
UniProt Q14103: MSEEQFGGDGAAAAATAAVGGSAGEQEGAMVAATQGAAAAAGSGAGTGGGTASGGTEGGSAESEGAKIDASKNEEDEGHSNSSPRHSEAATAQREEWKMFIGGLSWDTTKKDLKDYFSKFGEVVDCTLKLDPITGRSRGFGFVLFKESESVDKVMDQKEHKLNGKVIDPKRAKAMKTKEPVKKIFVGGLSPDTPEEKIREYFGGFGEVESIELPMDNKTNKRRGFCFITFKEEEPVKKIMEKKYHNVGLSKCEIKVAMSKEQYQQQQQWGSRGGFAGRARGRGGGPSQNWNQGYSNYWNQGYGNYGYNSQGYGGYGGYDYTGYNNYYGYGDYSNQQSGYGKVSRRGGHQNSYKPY
UniProt P02686: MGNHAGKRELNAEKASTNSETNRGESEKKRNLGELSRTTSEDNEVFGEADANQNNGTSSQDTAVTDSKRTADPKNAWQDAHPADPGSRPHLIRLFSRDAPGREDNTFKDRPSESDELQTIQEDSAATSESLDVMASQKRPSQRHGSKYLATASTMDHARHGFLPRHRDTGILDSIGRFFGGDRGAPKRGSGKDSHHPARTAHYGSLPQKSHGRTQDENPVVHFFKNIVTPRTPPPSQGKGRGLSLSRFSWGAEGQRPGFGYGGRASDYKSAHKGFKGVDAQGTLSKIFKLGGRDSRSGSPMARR

Key:
Assay in all cases: peptide or protein array; HuProt v3.1 human proteome microarray; >20 000 human recombinant proteins immobilised on the array; purified His-V5-CPPED1 applied; both purified
[1] = molecular target: T1, Adenosine deaminase, tRNA specific 3 (human) (UniProt Q96EY9)
T1 sequence: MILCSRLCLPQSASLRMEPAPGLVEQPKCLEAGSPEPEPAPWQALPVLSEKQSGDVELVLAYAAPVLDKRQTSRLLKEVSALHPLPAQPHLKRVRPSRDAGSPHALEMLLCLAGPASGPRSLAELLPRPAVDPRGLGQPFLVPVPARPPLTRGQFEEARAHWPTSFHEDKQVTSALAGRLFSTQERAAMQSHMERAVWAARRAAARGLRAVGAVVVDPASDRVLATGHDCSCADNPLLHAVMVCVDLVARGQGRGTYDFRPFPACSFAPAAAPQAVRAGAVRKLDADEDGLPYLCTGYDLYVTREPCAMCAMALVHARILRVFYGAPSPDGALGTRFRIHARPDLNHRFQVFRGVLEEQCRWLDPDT

[2] = molecular target: T2, C1q and TNF related 5 (human) (UniProt Q9BXJ0)
T2 sequence: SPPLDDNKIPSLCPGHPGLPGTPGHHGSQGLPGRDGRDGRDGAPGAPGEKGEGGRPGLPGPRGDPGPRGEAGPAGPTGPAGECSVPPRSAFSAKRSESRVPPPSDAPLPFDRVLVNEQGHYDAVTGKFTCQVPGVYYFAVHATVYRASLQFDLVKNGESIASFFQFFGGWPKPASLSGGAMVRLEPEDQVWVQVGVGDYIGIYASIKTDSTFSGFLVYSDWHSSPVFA

[3] = molecular target: Heterogeneous nuclear ribonucleoprotein D (human) (UniProt Q14103)
[4] = molecular target: Myelin basic protein (human) (UniProt P02686)
[5] = molecular target: T3, N-acetyltransferase 6 (human) (UniProt Q93015)
T3 sequence: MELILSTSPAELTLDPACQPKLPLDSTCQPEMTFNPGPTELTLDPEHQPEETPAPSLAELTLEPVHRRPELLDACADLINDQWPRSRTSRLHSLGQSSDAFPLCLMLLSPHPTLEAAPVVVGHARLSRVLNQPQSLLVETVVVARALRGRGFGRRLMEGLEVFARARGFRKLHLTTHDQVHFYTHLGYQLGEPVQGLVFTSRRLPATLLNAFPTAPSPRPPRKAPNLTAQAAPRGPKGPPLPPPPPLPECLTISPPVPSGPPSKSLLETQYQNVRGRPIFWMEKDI

[6] = molecular target: T4, sorbin and SH3 domain containing 1 (human) (UniProt Q9BX66)
T4 sequence: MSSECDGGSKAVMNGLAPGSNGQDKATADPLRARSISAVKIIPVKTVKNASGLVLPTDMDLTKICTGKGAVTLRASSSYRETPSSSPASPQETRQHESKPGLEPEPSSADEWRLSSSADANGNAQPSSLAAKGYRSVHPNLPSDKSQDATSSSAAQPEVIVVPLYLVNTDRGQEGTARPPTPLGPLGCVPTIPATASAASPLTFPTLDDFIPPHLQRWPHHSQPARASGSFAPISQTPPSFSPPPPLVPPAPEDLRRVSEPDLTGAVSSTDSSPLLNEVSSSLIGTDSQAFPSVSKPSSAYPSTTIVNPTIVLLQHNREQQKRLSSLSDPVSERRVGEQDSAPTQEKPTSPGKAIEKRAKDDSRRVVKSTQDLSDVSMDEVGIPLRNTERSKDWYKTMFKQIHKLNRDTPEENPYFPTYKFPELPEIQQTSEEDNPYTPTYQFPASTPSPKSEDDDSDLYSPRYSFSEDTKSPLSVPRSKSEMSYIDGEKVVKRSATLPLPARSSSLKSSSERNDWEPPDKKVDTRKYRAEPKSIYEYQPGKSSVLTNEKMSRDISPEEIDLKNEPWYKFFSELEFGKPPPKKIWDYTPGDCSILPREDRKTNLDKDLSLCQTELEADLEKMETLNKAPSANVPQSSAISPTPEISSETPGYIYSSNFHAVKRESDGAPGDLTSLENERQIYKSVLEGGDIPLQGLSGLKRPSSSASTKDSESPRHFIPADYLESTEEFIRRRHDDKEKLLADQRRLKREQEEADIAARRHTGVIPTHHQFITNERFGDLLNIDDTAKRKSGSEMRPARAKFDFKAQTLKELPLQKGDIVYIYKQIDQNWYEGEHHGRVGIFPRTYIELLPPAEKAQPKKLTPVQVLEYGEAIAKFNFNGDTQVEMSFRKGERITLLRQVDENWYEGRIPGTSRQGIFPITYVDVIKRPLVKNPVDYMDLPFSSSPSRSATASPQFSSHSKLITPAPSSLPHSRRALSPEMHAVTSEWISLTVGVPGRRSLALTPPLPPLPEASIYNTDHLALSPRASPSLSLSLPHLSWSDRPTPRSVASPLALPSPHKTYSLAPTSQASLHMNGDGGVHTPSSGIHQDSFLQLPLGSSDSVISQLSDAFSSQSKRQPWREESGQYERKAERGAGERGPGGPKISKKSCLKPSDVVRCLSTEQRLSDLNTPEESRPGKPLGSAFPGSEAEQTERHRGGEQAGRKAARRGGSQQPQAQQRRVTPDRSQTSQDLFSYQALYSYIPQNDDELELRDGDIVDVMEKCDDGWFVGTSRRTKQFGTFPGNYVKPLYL

binding [1]: binds
binding [2]: binds
binding [3]: binds
binding [4]: binds
binding [5]: binds
binding [6]: binds
Substance: human recombinant CPPED1 with N-terminal His-V5 dual tag (from UniProt Q9BRF8 1-314) (enzyme)
